This assay addresses CD36 (mouse (endogenous in DC2.4)) (UniProt Q08857). Nature of the assay: co-IP; endogenous proteins; DC2.4 cells co-cultured 24 h with Scramble- or Arf1-ablated CT26 cells, lysed in NP-40 lysis buffer; supernatants incubated with anti-CD36, anti-TLR2, anti-TLR6 or anti-Rab7 antibody overnight at 4 °C, agarose beads 2 h, washed three times with NP-40 buffer, immunoblotting. On the technique in general: In western blotting, separated proteins are transferred to a membrane and probed.

The chains behind the UniProt entries cited, without tags or fusion partners.
UniProt Q08857: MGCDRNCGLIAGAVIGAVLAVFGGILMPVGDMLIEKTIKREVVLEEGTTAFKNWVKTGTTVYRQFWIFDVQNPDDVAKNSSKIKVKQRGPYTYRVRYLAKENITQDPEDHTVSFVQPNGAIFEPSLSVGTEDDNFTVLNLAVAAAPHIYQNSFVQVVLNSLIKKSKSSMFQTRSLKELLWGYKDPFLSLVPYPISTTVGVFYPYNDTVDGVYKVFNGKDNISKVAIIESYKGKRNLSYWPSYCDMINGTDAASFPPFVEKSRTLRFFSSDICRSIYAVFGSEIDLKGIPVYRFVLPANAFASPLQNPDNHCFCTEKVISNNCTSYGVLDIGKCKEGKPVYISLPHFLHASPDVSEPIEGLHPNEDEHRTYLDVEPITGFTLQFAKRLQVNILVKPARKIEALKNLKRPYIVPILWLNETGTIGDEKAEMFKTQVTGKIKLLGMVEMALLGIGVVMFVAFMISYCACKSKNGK

No constants are given. Whether binding was seen depends on the method and setting. Binding seen in cells or lysates may run through a third protein. Some binding calls cover weakened binding; strength is not graded here.

B1: TLR6 (receptor, UniProt Q9EPW9 28-795)
chain: FSNELESMVDYSNRNLTHVPKDLPPRTKALSLSQNSISELRMPDISFLSELRVLRLSHNRIRSLDFHVFLFNQDLEYLDVSHNRLQNISCCPMASLRHLDLSFNDFDVLPVCKEFGNLTKLTFLGLSAAKFRQLDLLPVAHLHLSCILLDLVSYHIKGGETESLQIPNTTVLHLVFHPNSLFSVQVNMSVNALGHLQLSNIKLNDENCQRLMTFLSELTRGPTLLNVTLQHIETTWKCSVKLFQFFWPRPVEYLNIYNLTITERIDREEFTYSETALKSLMIEHVKNQVFLFSKEALYSVFAEMNIKMLSISDTPFIHMVCPPSPSSFTFLNFTQNVFTDSVFQGCSTLKRLQTLILQRNGLKNFFKVALMTKNMSSLETLDVSLNSLNSHAYDRTCAWAESILVLNLSSNMLTGSVFRCLPPKVKVLDLHNNRIMSIPKDVTHLQALQELNVASNSLTDLPGCGAFSSLSVLVIDHNSVSHPSEDFFQSCQNIRSLTAGNNPFQCTCELRDFVKNIGWVAREVVEGWPDSYRCDYPESSKGTALRDFHMSPLSCDTVLLTVTIGATMLVLAVTGAFLCLYFDLPWYVRMLCQWTQTRHRARHIPLEELQRNLQFHAFVSYSEHDSAWVKNELLPNLEKDDIRVCLHERNFVPGKSIVENIINFIEKSYKAIFVLSPHFIQSEWCHYELYFAHHNLFHEGSDNLILILLEPILQNNIPSRYHKLRALMAQRTYLEWPTEKGKRGLFWANLRASFIMKLALVNEDDVKT
Turning to B1, the binding entry was “binds”.
